Tested on: Chinese hamster ovary cells
Assay: Cytotoxicity, MTT assay, CHO
Assay type: cell-based
Details: for CHO SI (NF54): CHO IC50/PfNF54 IC50; for CHO SI (K1): selectivity index with respect to K1 IC50, ratio IC50 (Chinese hamster ovary cells) / IC50 (P. falciparum K1)

In the case of `CS(=O)(=O)c1cccc(-c2ccc3nccc(-c4cccc(S(C)(=O)=O)c4)c3n2)c1` [Compound 18, 2,8-Bis(3-methylsulfonylphenyl)-1,5-naphthyridine], the “CHO SI (NF54)” value is reported as 2176.

With `Cn1ccc(-c2ccc3nccc(-c4ccc(C(C)(C)O)nc4)c3n2)cc1=O` [Compound 24, 4-[8-[6-(2-Hydroxypropan-2-yl)pyridin-3-yl]-1,5-naphthyridin-2-yl]-1-methylpyridin-2-one] the “CHO SI (NF54)” value was 333 and the “CHO SI (K1)” value was 109.

In the case of `CC(C)(O)c1ccc(-c2ccnc3ccc(-c4ccnc(N5C[C@H](O)[C@@H](O)C5)c4)nc23)cn1` [Compound 28, (3S,4S)-1-[4-[8-[6-(2-Hydroxypropan-2-yl)pyridin-3-yl]-1,5-naphthyridin-2-yl]pyridin-2-yl]pyrrolidine-3,4-diol], the “CHO SI (NF54)” value is reported as greater than 1162 and the “CHO SI (K1)” value is reported as greater than 943.

`CC(C)(O)c1cccc(-c2ccc3nccc(-c4ccc(C(C)(C)O)nc4)c3n2)c1` [Compound 30, 2-[3-[8-[6-(2-Hydroxypropan-2-yl)pyridin-3-yl]-1,5-naphthyridin-2-yl]phenyl]propan-2-ol] was tested, and the “CHO SI (NF54)” value was 30 and the “CHO SI (K1)” value was 88.

In the case of `CS(=O)(=O)c1cccc(-c2ccc3nccc(-c4ccc(C(=O)N5CCC(O)C5)cc4)c3n2)c1` (stereo not shown) [Compound 37, (3-Hydroxypyrrolidin-1-yl)-[4-[6-(3-methylsulfonylphenyl)-1,5-naphthyridin-4-yl]phenyl]methanone], the “CHO SI (NF54)” value is reported as 750 and the “CHO SI (K1)” value is reported as 250.

With `CS(=O)(=O)c1cccc(-c2ccc3nccc(-c4ccc(C(=O)N5CC[C@H](N)C5)cc4)c3n2)c1` [Compound 38, [(3S)-3-Aminopyrrolidin-1-yl]-[4-[6-(3-methylsulfonylphenyl)-1,5-naphthyridin-4-yl]phenyl]methanone] the “CHO SI (NF54)” value was 583.
